Among the data in article PMC12864879 are binding values, retold here.

Amino acid sequences for entries named in this document (tags omitted). A change or cut given only in a name is not applied to a line headed by its entry.
UniProt P60953: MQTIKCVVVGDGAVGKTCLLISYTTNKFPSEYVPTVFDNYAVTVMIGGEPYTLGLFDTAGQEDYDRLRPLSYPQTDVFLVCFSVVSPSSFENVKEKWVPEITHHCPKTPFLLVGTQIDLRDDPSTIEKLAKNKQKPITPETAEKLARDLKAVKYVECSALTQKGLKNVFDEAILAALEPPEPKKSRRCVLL

Results are given in words; binding and its absence hold for the method and conditions named.

This assay has as its target GTP-loaded Cdc42 G12V (UniProt P60953). Description: recruitment to supported lipid bilayers on nanobar arrays (spinning-disc confocal fluorescence microscopy); fluorescently labelled purified proteins premixed in PBS for 2 min, added to SLB (POPC, 10% POPS, 1% PI(4,5)P2, 0.5% Rhodamine-PE) on quartz nanobars of 200-1000 nm width; imaged after 30 min at room temperature; signal at nanobar ends normalised to the lipid signal; e.g. 200 nM AF647-FBP17 with 50 nM AF488-N-WASP, titrations at F:N = 4:1, FBP17 or FdHR1 with or without GTP-loaded Cdc42 G12V; both purified.

B1: FBP17 ΔHR1 (deleted aa 401–485) (protein, UniProt Q96RU3)
chain: MSWGTELWDQFDNLEKHTQWGIDILEKYIKFVKERTEIELSYAKQLRNLSKKYQPKKNSKEEEEYKYTSCKAFISNLNEMNDYAGQHEVISENMASQIIVDLARYVQELKQERKSNFHDGRKAQQHIETCWKQLESSKRRFERDCKEADRAQQYFEKMDADINVTKADVEKARQQAQIRHQMAEDSKADYSSILQKFNHEQHEYYHTHIPNIFQKIQEMEERRIVRMGESMKTYAEVDRQVIPIIGKCLDGIVKAAESIDQKNDSQLVIEAYKSGFEPPGDIEFEDYTQPMKRTVSDNSLSNSRGEGKPDLKFGGKSKGKLWPFIKKNKLMSLLTSPHQPPPPPPASASPSAVPNGPQSPKQQKEPLSHRFNEFMTSKPKIHCFRSLKRGLSLKLGATPELPARSEQARRQSGLYDSQNPPTVNNCAQDRESPDGSYTEEQSQESEMKVLATDFDDEFDDEEPLPAIGTCKALYTFEGQNEGTISVVEGETLYVIEEDKGDGWTRIRRNEDEEGYVPTSYVEVCLDKNAKDS
modifications: Alexa Fluor dye on primary amines
For the molecule B1, the binding entry is on record as “no binding”.
